PubChem BioAssay AID743454, Peter MacCallum Cancer Centre | 2014

Purpose: 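Knock-downs lowering viability or raising caspase 3/7 activity in vorinostat-treated resistant cells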 (primary screen)
System: human HCT116-VR colon cancer cells, selected for vorinostat resistance
Knock-down reagent: siRNA pool against human genes, 40 nM siRNA pool
Time to read-out: vorinostat for 24 h, read-out about 72 h after transfection
Challenge: vorinostat at 2.5 µM final
Measured: 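Cell viability by CellTiter-Fluor and caspase 3/7 activity by luminescence, each scaled to mock wells per plate, duplicates averaged, then robust z-scored over all plates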
Scale: viability robust z-score: higher = more viable cells than screen typical; caspase robust z-score: higher = more caspase 3/7 activity than screen typical
Call rule: 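Hits are knock-downs in viability class RV1/RV2 or caspase class CA1/CA2, excluding ones that killed cells in the no-drug cell-count arm; hits then retested with single siRNAs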
In all, the deposit lists about 18,000 reagents; below is a random part of them. Over the whole deposit, 450 (2.5%) got an active call. 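Single biological run; no consistent viability z cut-off exists, so the class columns, not z-scores, define the calls.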 No sequences are given here.

Target gene | PubChem SID | viability hit class | caspase hit class | viability robust z-score | caspase robust z-score | Call
POMT1 (GeneID 10585) | SID152151546 | no change | no change | 0.08 | -0.08 | inactive
BLCAP (GeneID 10904) | SID152154701 | no change | no change | -1.53 | 4.92 | inactive
ITM2A (GeneID 9452) | SID135623743 | no change | no change | -0.22 | 1.12 | inactive
NUDT8 (GeneID 254552) | SID134322765 | no change | no change | -0.5 | -0.84 | inactive
ZBBX (GeneID 79740) | SID135622736 | no change | no change | -1.29 | 1.31 | inactive
KCNH2 (GeneID 3757) | SID135621164 | no change | no change | -0.57 | 5.11 | inactive
RPN2 (GeneID 6185) | SID134316083 | no change | no change | 0.55 | 2.24 | inactive
HOXB3 (GeneID 3213) | SID152153378 | no change | no change | 0.56 | 3.6 | inactive
REC114 (GeneID 283677) | SID152156362 | no change | no change | 1.17 | 2.34 | inactive
KCNA6 (GeneID 3742) | SID134311634 | no change | no change | -1.76 | 0.26 | inactive
ATF4 (GeneID 468) | SID134310757 | no change | no change | -0.8 | 0.78 | inactive
USP21 (GeneID 27005) | SID134311492 | no change | no change | -0.9 | 0.09 | inactive
CD300LD-AS1 (GeneID 146723) | SID134320411 | no change | no change | 0.26 | 0.18 | inactive
UBR7 (GeneID 55148) | SID135623155 | no change | no change | -0.48 | 0.31 | inactive
PROSER2 (GeneID 254427) | SID134322237 | no change | no change | 0.19 | -1.04 | inactive
HNMT (GeneID 3176) | SID135621581 | no change | no change | -0.55 | 1.38 | inactive
RARA (GeneID 5914) | SID152153401 | no change | no change | -0.97 | -0.96 | inactive
EEF1AKMT1 (GeneID 221143) | SID135623406 | no change | no change | 0.51 | 1.79 | inactive
WDR11 (GeneID 55717) | SID134317137 | no change | no change | -0.96 | 2.54 | inactive
UBE2E3 (GeneID 10477) | SID134313694 | no change | no change | -0.86 | 0.56 | inactive
USP42 (GeneID 84132) | SID135621140 | no change | no change | 0.53 | -0.8 | inactive
FOLH1 (GeneID 2346) | SID135621091 | no change | no change | -1.73 | 4.52 | inactive
PPOX (GeneID 5498) | SID135621561 | no change | no change | -0.95 | 1.75 | inactive
NPSR1 (GeneID 387129) | SID134329674 | no change | no change | -0.81 | -1.16 | inactive
SLC6A12 (GeneID 6539) | SID152156196 | no change | no change | -0.02 | -0.45 | inactive
YTHDC2 (GeneID 64848) | SID134318395 | no change | no change | 0.29 | 2.18 | inactive
GPX7 (GeneID 2882) | SID152153910 | no change | no change | -1.56 | -1.11 | inactive
SFRP2 (GeneID 6423) | SID152155514 | no change | no change | -1.16 | 0.53 | inactive
VKORC1L1 (GeneID 154807) | SID134322390 | no change | no change | -0.67 | -0.24 | inactive
BRDT (GeneID 676) | SID152149808 | no change | no change | -1.19 | -0.38 | inactive
NR2F1 (GeneID 7025) | SID152151066 | no change | no change | 1.28 | -0.68 | inactive
SLC38A11 (GeneID 151258) | SID135621355 | no change | no change | -1.83 | 1.06 | inactive
BTC (GeneID 685) | SID135622154 | no change | no change | -0.16 | 4.43 | inactive
HYAL1 (GeneID 3373) | SID134315016 | no change | no change | -0.58 | 3.12 | inactive
RNASEH1 (GeneID 246243) | SID134316857 | no change | no change | 0.44 | 0.38 | inactive
C4B (GeneID 721) | SID152150937 | no change | no change | -1.5 | -0.85 | inactive
ZNF771 (GeneID 51333) | SID152154127 | no change | no change | 1.42 | 4.62 | inactive
PITPNC1 (GeneID 26207) | SID134316745 | no change | no change | -1.15 | -0.9 | inactive
FTSJ1 (GeneID 24140) | SID152151377 | no change | no change | -0.26 | -1.45 | inactive
UBE2D1 (GeneID 7321) | SID134314141 | no change | no change | 0.14 | -0.99 | inactive
TBCE (GeneID 6905) | SID152148970 | no change | no change | 0.99 | -0.97 | inactive
THEM4 (GeneID 117145) | SID152151571 | no change | no change | 0.53 | -0.14 | inactive
SELENOV (GeneID 348303) | SID134323113 | no change | no change | 0.97 | 3.09 | inactive
CCDC47 (GeneID 57003) | SID134315211 | no change | no change | -1.07 | 1.82 | inactive
TM4SF5 (GeneID 9032) | SID152155841 | no change | no change | 0.9 | 0.22 | inactive
MAP7D2 (GeneID 256714) | SID134320260 | no change | no change | 1.84 | -0.52 | inactive
IGFBPL1 (GeneID 347252) | SID135624533 | no change | no change | -0.16 | -0.45 | inactive
HCK (GeneID 3055) | SID135620622 | no change | no change | 0.92 | 1.42 | inactive
FAHD2B (GeneID 151313) | SID134325525 | no change | no change | -0.55 | 2.86 | inactive
GLYCTK (GeneID 132158) | SID134311964 | no change | CA2 (caspase activation) | -0.82 | 6.92 | active
GALNT8 (GeneID 26290) | SID134317632 | no change | no change | -0.41 | 0.09 | inactive
PITRM1 (GeneID 10531) | SID134310730 | no change | no change | -0.21 | -0.62 | inactive
TIPE2 (GeneID 79626) | SID135622726 | no change | no change | 0.43 | -0.6 | inactive
ETV1 (GeneID 2115) | SID135620740 | no change | no change | 1.18 | -0.2 | inactive
MCM2 (GeneID 4171) | SID135620651 | no change | no change | 0.08 | -1.04 | inactive
SLC18A2 (GeneID 6571) | SID135621367 | no change | no change | 0.1 | -0.9 | inactive
KDM5C (GeneID 8242) | SID152154017 | no change | no change | 0.12 | -0.36 | inactive
